Counter-ions that a name gives are not always drawn. This is one part of the list. Rule as the data show it: active = 2.5 or more and inactive = the rest. Most values lie within the scatter of the assay; repeated measurements hardly agree.

In this assay the test system is Lgr5 (MarsCy1-Lgr5-EGFP, U2OS). Description: cell-surface Lgr5 expression (SCi1 fluorescence, background-subtracted) relative to WT control (fold of WT control); higher = more Lgr5 at the plasma membrane. The settings on record: U2OS MarsCy1-Lgr5-EGFP stable; treatment time: overnight; library: Prestwick; 20 µM.
In the case of `C=C1[C@H]2C[C@@]3([C@@H]1O)[C@@H](C[C@@H]2O)[C@]12[C@@H]4C[C@H]3[C@H]1N(CC)C[C@]4(C)CC[C@@H]2O` [Napelline], the “cell-surface Lgr5 expression” value is inactive: 1.32.

Regarding `C/C=C1/C[N+]2(C)CCC34C(=C(C=O)[C@H]1C[C@@H]32)Nc1ccccc14` (some centres undefined) [Fluorocurarine chloride], the “cell-surface Lgr5 expression” value was inactive: 1.87.

With `CC(C)[N+](C)(CCC(C(N)=O)(c1ccccc1)c1ccccc1)C(C)C` [Isopropamide iodide], the “cell-surface Lgr5 expression” value is inactive: 1.75.

For the compound `O=C([O-])c1ccccc1-c1c2cc(Br)c(=O)cc-2oc2[c]([Hg+])c([O-])c(Br)cc12.[Na+].[Na+].[OH-]` [Merbromin], the “cell-surface Lgr5 expression” value is inactive: 2.23.

Turning to `O=c1[nH]c2ccccc2n1CCCN1CCC(n2c(=O)[nH]c3cc(Cl)ccc32)CC1` [Domperidone maleate], the “cell-surface Lgr5 expression” value is inactive: 1.1.

Regarding `O=C(O)CCCc1ccc(N(CCCl)CCCl)cc1` [Chlorambucil], the “cell-surface Lgr5 expression” value was inactive: 0.889.

On to `C[C@]12CCC(=O)C=C1CC[C@@H]1[C@@H]2C(=O)C[C@]2(C)C(=O)CC[C@@H]12` [Adrenosterone], for which the “cell-surface Lgr5 expression” value was inactive: 2.11.

On to `CC[C@H](C)[C@H]1O[C@]2(C=C[C@@H]1C)C[C@@H]1C[C@@H](C/C=C(\C)[C@@H](O[C@H]3C[C@H](OC)[C@@H](O[C@H]4C[C@H](OC)[C@@H](O)[C@H](C)O4)[C@H](C)O3)[C@@H](C)/C=C/C=C3\CO[C@@H]4[C@H](O)C(C)=C[C@@H](C(=O)O1)[C@]34O)O2.CO[C@H]1C[C@H](O[C@H]2[C@H](C)O[C@@H](O[C@@H]3/C(C)=C/C[C@@H]4C[C@@H](C[C@]5(C=C[C@H](C)[C@@H](C(C)C)O5)O4)OC(=O)[C@@H]4C=C(C)[C@@H](O)[C@H]5OC/C(=C\C=C\[C@@H]3C)[C@]54O)C[C@@H]2OC)O[C@@H](C)[C@@H]1O` [Avermectin B1], for which the “cell-surface Lgr5 expression” value is inactive: 2.08.

On to `CN(C)Cc1c[nH]c2ccccc12` [Gramine], for which the “cell-surface Lgr5 expression” value is active: 2.66.

On to `C[N+]1(C)CCOC(O)(c2ccc(-c3ccc(C4(O)C[N+](C)(C)CCO4)cc3)cc2)C1` (centres undefined) [Hemicholinium bromide], for which the “cell-surface Lgr5 expression” value is inactive: 1.19.

For the compound `COc1ccn(C)c(=O)c1C#N` [Ricinine], the “cell-surface Lgr5 expression” value is inactive: 1.57.

`O=C1C=C2C=C[C@@H]3C[C@@]2(O1)[C@H]1CCCCN31` [Securinine]: the “cell-surface Lgr5 expression” value was inactive: 1.45.

For the compound `COc1ccc2[nH]c3c(c2c1)CCN=C3C` [Methoxy-6-harmalan], the “cell-surface Lgr5 expression” value was active: 2.99.

Regarding `CC(C)[C@@]1(NC(=O)[C@@H]2C[C@@H]3c4cccc5[nH]cc(c45)C[C@H]3N(C)C2)O[C@@]2(O)[C@@H]3CCCN3C(=O)[C@H](Cc3ccccc3)N2C1=O` [Dihydroergocristine mesylate], the “cell-surface Lgr5 expression” value is active: 4.11.

As to `C[N+]1(C)[C@@H]2CC[C@H]1C[C@@H](OC(=O)C(CO)c1ccccc1)C2` (some centres undefined) [Methylatropine nitrate], the “cell-surface Lgr5 expression” value is inactive: 1.88.

Turning to `CN1C[C@H](C(=O)N[C@]2(C)O[C@@]3(O)[C@@H]4CCCN4C(=O)[C@H](Cc4ccccc4)N3C2=O)C[C@@H]2c3cccc4[nH]cc(c34)C[C@H]21` [Dihydroergotamine tartrate], the “cell-surface Lgr5 expression” value was inactive: 1.59.

Consider `c1ccc2nc(N3CCNCC3)ccc2c1` [Quipazine dimaleate salt], for which the “cell-surface Lgr5 expression” value is active: 2.58.

In the case of `C[N+](C)(C)CCCCCCCCCC[N+](C)(C)C` [Decamethonium bromide], the “cell-surface Lgr5 expression” value was inactive: 1.14.

For `CC[C@@]1(O)C(=O)OCc2c1cc1n(c2=O)Cc2cc3ccccc3nc2-1` [Camptothecine (S,+)], the “cell-surface Lgr5 expression” value was inactive: 0.472.

In the case of `CCC(=O)O[C@@](Cc1ccccc1)(c1ccccc1)[C@@H](C)CN(C)C` [Levopropoxyphene napsylate], the “cell-surface Lgr5 expression” value was inactive: 1.27.

For `CCCCc1ccc(C(=O)O)nc1` [Fusaric acid], the “cell-surface Lgr5 expression” value is inactive: 1.67.

In the case of `CCCN1C[C@H](CSC)C[C@@H]2c3cccc4[nH]cc(c34)C[C@H]21` [Pergolide mesylate], the “cell-surface Lgr5 expression” value is inactive: 1.66.

As to `O[C@@H]1CCCC[C@H]1N1CCC(c2ccccc2)CC1` [L(-)-vesamicol hydrochloride], the “cell-surface Lgr5 expression” value was inactive: 1.31.

On to `C[N+]1([O-])[C@@H]2C[C@@H](OC(=O)[C@H](CO)c3ccccc3)C[C@H]1[C@@H]1O[C@@H]12` (some centres undefined) [Scopolamin-N-oxide hydrobromide], for which the “cell-surface Lgr5 expression” value is inactive: 0.814.

On to `C[C@]12N[C@H](Cc3ccccc31)c1ccccc12` [Dizocilpine maleate], for which the “cell-surface Lgr5 expression” value is inactive: 1.27.

As to `CC(=O)O[C@H]1C[C@H](O[C@H]2[C@@H](O)C[C@H](O[C@H]3[C@@H](O)C[C@H](O[C@H]4CC[C@@]5(C)[C@H](CC[C@@H]6[C@@H]5C[C@@H](O)[C@]5(C)[C@@H](C7=CC(=O)OC7)CC[C@]65O)C4)O[C@@H]3C)O[C@@H]2C)O[C@H](C)[C@H]1O[C@@H]1O[C@H](CO)[C@@H](O)[C@H](O)[C@H]1O` [Lanatoside C], the “cell-surface Lgr5 expression” value is inactive: 1.06.

Regarding `COc1ccc(CCN2CCC(Nc3nc4ccccc4n3Cc3ccc(F)cc3)CC2)cc1` [Astemizole], the “cell-surface Lgr5 expression” value is inactive: 0.725.

As to `CN1C[C@H](CO)C=C2c3cccc4[nH]cc(c34)C[C@H]21` [Lysergol], the “cell-surface Lgr5 expression” value is inactive: 0.413.

Consider `C/C=C1\C[C@@H](C)[C@](O)(CO)C(=O)OCC2=CCN3CC[C@@H](OC1=O)[C@@H]23` [Retrorsine], for which the “cell-surface Lgr5 expression” value was inactive: 2.22.

In the case of `CC1=C2[C@H]3OC(=O)[C@@H](C)[C@@H]3CC[C@@]2(C)C=CC1=O` [alpha-Santonin], the “cell-surface Lgr5 expression” value is inactive: 0.807.

As to `Fc1ccc(C(OCCN2CCN(CCCc3ccccc3)CC2)c2ccc(F)cc2)cc1`, the “cell-surface Lgr5 expression” value was inactive: 0.948.

As for `CC(C)(C)NCC(O)c1cc(Cl)c(N)c(Cl)c1` (centres undefined) [Clenbuterol hydrochloride], the “cell-surface Lgr5 expression” value is active: 2.69.

As to `COC(=O)C1=CCCN(C)C1` [Arecoline hydrobromide], the “cell-surface Lgr5 expression” value is inactive: 1.69.

As to `C[C@@H]1NCCc2cc(O)c(O)cc21` [Salsolinol hydrobromide], the “cell-surface Lgr5 expression” value is active: 3.

In the case of `CCC1(CC)C(=O)C=CNC1=O` [Pyrithyldione], the “cell-surface Lgr5 expression” value is active: 2.84.

Regarding `COc1ccc(Cc2nccc3cc(OC)c(OC)cc23)cc1OC` [Papaverine hydrochloride], the “cell-surface Lgr5 expression” value is active: 3.92.

`NCC(O)c1ccc(O)cc1` (racemic) [(+,-)-Octopamine hydrochloride]: the “cell-surface Lgr5 expression” value is inactive: 1.95.

`CN1[C@@H]2CC[C@H]1C[C@@H](OC1c3ccccc3CCc3ccccc31)C2` [Deptropine citrate]: the “cell-surface Lgr5 expression” value is inactive: 1.36.

On to `COc1ccc2c3c([nH]c2c1)C(C)=NCC3` [Harmaline hydrochloride dihydrate], for which the “cell-surface Lgr5 expression” value was inactive: 1.51.

In the case of `C[C@@H]1O[C@@H](O[C@H]2C[C@@H](O)[C@]3(CO)[C@H]4[C@H](O)C[C@]5(C)[C@@H](C6=CC(=O)OC6)CC[C@]5(O)[C@@H]4CC[C@]3(O)C2)[C@H](O)[C@H](O)[C@H]1O` [Strophantine octahydrate], the “cell-surface Lgr5 expression” value is inactive: -0.0403.

Turning to `CC[C@@]1([C@@H]2O[C@@H]([C@H]3O[C@@](O)(CO)[C@H](C)C[C@@H]3C)C[C@@H]2C)CC[C@H]([C@]2(C)CC[C@]3(C[C@H](O)[C@@H](C)[C@@H]([C@@H](C)[C@@H](OC)[C@H](C)C(=O)O)O3)O2)O1` [Monensin sodium salt], the “cell-surface Lgr5 expression” value was inactive: 1.25.

Regarding `CCC1(c2ccc(N)cc2)CCC(=O)NC1=O` (centres undefined) [Glutethimide, para-amino], the “cell-surface Lgr5 expression” value is inactive: 1.1.

On to `CCn1cc(C(=O)O)c(=O)c2cc3c(cc21)OCO3` [Oxolinic acid], for which the “cell-surface Lgr5 expression” value is inactive: 1.2.

Consider `C[C@]12CC[C@H](O)C[C@@H]1CC[C@@H]1[C@@H]2CC[C@]2(C)C(=O)CC[C@@H]12` [Epiandrosterone], for which the “cell-surface Lgr5 expression” value was inactive: 0.636.

Turning to `CN(C)C(=O)Oc1cc(OC(=O)N(C)C)cc(C(O)CNC(C)(C)C)c1` (centres undefined) [Bambuterol hydrochloride], the “cell-surface Lgr5 expression” value is inactive: 1.36.

With `CCN1C[C@]2(COC)[C@H](O)C[C@H](OC)[C@@]34[C@@H]5C[C@@]6(O)[C@H](OC(=O)c7ccccc7)[C@@H]5[C@@](OC(C)=O)([C@@H]([C@H](OC)[C@H]23)[C@@H]14)[C@@H](O)[C@@H]6OC` [Aconitine], the “cell-surface Lgr5 expression” value was inactive: 1.89.

In the case of `O=[N+]([O-])c1cc([As](=O)(O)O)ccc1O` [Roxarsone], the “cell-surface Lgr5 expression” value was inactive: 1.07.

Take `c1cncc(C2=NCCC2)c1` [Myosmine]: the “cell-surface Lgr5 expression” value is inactive: 2.48.

With `Cc1nccc2c1[nH]c1ccccc12` [Harmane hydrochloride], the “cell-surface Lgr5 expression” value is inactive: 1.57.

For `Cc1c2ccncc2c(C)c2c1[nH]c1ccccc12` [Ellipticine], the “cell-surface Lgr5 expression” value is inactive: 1.67.

Take `CC(=O)OCC(=O)[C@H]1CC[C@H]2[C@@H]3CC[C@H]4C[C@H](O)CC[C@]4(C)[C@H]3C(=O)C[C@]12C` [Alfadolone acetate]: the “cell-surface Lgr5 expression” value is inactive: 1.3.

As for `C=C[C@]12CN(C)[C@@H]3[C@H]4CO[C@H](C[C@H]41)[C@]1(C(=O)Nc4ccccc41)[C@@H]32` [Gelsemine], the “cell-surface Lgr5 expression” value was inactive: 1.85.

With `C=C(C)[C@@H]1[C@H]2OC(=O)[C@@H]1[C@]1(O)C[C@H]3O[C@]34C(=O)O[C@H]2[C@]14C` [Picrotoxinin], the “cell-surface Lgr5 expression” value was inactive: 2.06.

With `CC(C)c1c(CN(C)C(C)Cc2ccccc2)n(C)n(-c2ccccc2)c1=O` (centres undefined) [Famprofazone], the “cell-surface Lgr5 expression” value was active: 3.19.

As for `CO[C@H](C)[C@](O)(C(=O)OCC1=CCN2CC[C@H](O)[C@@H]12)C(C)C` [Heliotrine], the “cell-surface Lgr5 expression” value is inactive: 1.88.

`O=P1(NCCCl)OCCCN1CCCl` (centres undefined) [Ifosfamide]: the “cell-surface Lgr5 expression” value was inactive: 1.98.

For the compound `NC(=O)CN1CCCC1=O` [Piracetam], the “cell-surface Lgr5 expression” value is inactive: 2.2.

`COc1cc2c(cc1OC)C(C)NCC2` (centres undefined): the “cell-surface Lgr5 expression” value was inactive: 1.97.

Turning to `Cc1cccc(C)c1NC1=NCCCS1` [Xylazine], the “cell-surface Lgr5 expression” value is inactive: 1.8.

(Values after the supplement of paper PMC4683952.)
